Reference: US11215619B2 (priority 2019, dated 2022)

Key:
[1] = tested on: OTABA; experiment: CD titrations of dye binding to OTABA and dye displacement by OTA; type: physicochemical
[2] = tested on: OTABA; experiment: Fluorescent titration of dye binding to OTABA; details: for Irel (B/F): fold increase in emission, 6 μM dye, 1.5 equiv. OTABA; for Irel dyes: intensity ratio ThT:4QI:BtC, 1 μM dye bound to 0.5 μM OTABA
Protocol: Dye interaction with OTABA and subsequent displacement by OTA was initially investigated using fluorescence spectroscopy (FIG. 17) in the previously optimized OTA binding buffer. (Fadock et al., 2017) Additions of OTABA (up to 1.5 equiv.) to the dye (6 μM) caused dose-dependent increases in ligand emission at 488 nm for ThT (240-fold increase at 1.5 equiv. OTABA, FIG. 17a), 605 nm for the 4QI (42-fold, FIG. 17b) and 640 nm for BtC (8-fold, FIG. 17c).

[3] = Solvatochromic studies of 4QI; type: physicochemical; details: Irel = I4QI in solvent/I4QI in H2O
Protocol: All fluorescence excitation and emission measurements were made at 25.00° C. using a PTI Alphascan-2 spectrofluorometer equipped with a 1×4 Multicell Block Peltier and temperature controller, with baseline correction and variable slit widths as specified. All fluorescence excitation spectra were recorded at the maximum emission wavelength of the fluorophore and emission spectra were recorded at the maximum excitation wavelength.
Solvatochromatic studies were completed using quartz cells (Hellma 101-QS) with a light path of 10 mm. A 100 μM stock solution of 4QI was prepared in reagent grade DMSO. Using the stock solution, 3 μM solutions of 4QI were prepared in a series of solvents: MQ water, methanol, acetonitrile, THF, chloroform and isopropyl alcohol. After mixing by inversion (×20), emission and excitation spectra for each sample were recorded as described using slit widths of 5 nm.

SMILES | GQ topology ([1]; after dye displacement by OTA) | GQ topology ([1]; dye bound to OTABA) | Irel (B/F) [2] | Irel dyes [2] | Irel ([3]; Acetonitrile) | Irel ([3]; H2O) | Irel ([3]; Isopropyl-alcohol) | Irel ([3]; Methanol) | Irel ([3]; THF)
CCN(CC)c1ccc2cc(/C=C/c3sc4ccccc4[n+]3C)c(=O)oc2c1 [BtC] | antiparallel | hybrid | 8 | 15 | – | – | – | – | –
Cc1ccc2c(c1)sc(-c1ccc(N(C)C)cc1)[n+]2C [ThT, Thioflavin T] | antiparallel | antiparallel | 240 | 1 | – | – | – | – | –
C[n+]1ccc(/C=C/c2cn(CCCO)c3ccccc23)c2ccccc21.[I-] [4QI, 4-(2-(1-(3-hydroxypropyl)-1H-indol-3-yl)vinyl)-1-methylquinolin-1-ium iodide] | parallel | parallel | 42 | 5.6 | 3.6 | 1.0 | 28.3 | 5.2 | 23.9
